At least one structure is not confirmed: it was looked up by name or label, or the drawing left a doubt.
System: wild type (WT) mice
Assay: Doxorubicin cardiotoxicity in wild type mice (survival, anatomy, conscious echocardiography, fibrosis)
Conditions: co-administration of trametinib with DOX and dabuzalgron, conscious echocardiography after 7 days
From the text: FIGS. 2A-2B. […] On Day 7 the mice underwent echocardiography prior to sacrifice. FIG. 2A. Fractional shortening, a measure of contractile function, with representative M-mode echocardiogram images. […] FIG. 2B. Heart sections from some of these mice (i.e. wild type mice) stained with Masson Trichrome. Fibrosis (weighted average collagen content) was quantified using Aperio ImageScope software.
On Day 7, mice underwent echocardiography and were sacrificed by cervical dislocation after an overdose of isoflurane.
Conscious transthoracic echocardiography was performed on loosely restrained mice in the McAllister Heart Institute Animal Models Core using a VisualSonics Vevo 2100 ultrasound system (VisualSonics, Inc., Toronto, Ontario, Canada). […] Left ventricular systolic function was assessed by fractional shortening (% FS=[(LVEDD−LVESD)/LVEDD]×100). […]
Mice were heparinized and the heart was perfused with 10 mL PBS followed by 20 mL of 4% PFA/PBS through a 23 G butterfly needle, excised and placed in 4% PFA/PBS for 24 hours then transferred to 70% EtOH. […] Fibrosis was analyzed in 3 Masson Trichrome (MT)-stained sections of 4 or 5 hearts from each treatment group. Slides were scanned using an Aperio ScanScope (Aperio Technologies, Vista, Calif.) and analyzed in Aperio ImageScope software. […]

CC(=O)Nc1cccc(-n2c(=O)n(C3CC3)c(=O)c3c(Nc4ccc(I)cc4F)n(C)c(=O)c(C)c32)c1 [trametinib]
effect on dabuzalgron's protective effect on contractile function: abrogated
